We go through five molecules from publication PMC11324514.

Amino acid sequences for entries named in this document (tags omitted).
UniProt Q07157: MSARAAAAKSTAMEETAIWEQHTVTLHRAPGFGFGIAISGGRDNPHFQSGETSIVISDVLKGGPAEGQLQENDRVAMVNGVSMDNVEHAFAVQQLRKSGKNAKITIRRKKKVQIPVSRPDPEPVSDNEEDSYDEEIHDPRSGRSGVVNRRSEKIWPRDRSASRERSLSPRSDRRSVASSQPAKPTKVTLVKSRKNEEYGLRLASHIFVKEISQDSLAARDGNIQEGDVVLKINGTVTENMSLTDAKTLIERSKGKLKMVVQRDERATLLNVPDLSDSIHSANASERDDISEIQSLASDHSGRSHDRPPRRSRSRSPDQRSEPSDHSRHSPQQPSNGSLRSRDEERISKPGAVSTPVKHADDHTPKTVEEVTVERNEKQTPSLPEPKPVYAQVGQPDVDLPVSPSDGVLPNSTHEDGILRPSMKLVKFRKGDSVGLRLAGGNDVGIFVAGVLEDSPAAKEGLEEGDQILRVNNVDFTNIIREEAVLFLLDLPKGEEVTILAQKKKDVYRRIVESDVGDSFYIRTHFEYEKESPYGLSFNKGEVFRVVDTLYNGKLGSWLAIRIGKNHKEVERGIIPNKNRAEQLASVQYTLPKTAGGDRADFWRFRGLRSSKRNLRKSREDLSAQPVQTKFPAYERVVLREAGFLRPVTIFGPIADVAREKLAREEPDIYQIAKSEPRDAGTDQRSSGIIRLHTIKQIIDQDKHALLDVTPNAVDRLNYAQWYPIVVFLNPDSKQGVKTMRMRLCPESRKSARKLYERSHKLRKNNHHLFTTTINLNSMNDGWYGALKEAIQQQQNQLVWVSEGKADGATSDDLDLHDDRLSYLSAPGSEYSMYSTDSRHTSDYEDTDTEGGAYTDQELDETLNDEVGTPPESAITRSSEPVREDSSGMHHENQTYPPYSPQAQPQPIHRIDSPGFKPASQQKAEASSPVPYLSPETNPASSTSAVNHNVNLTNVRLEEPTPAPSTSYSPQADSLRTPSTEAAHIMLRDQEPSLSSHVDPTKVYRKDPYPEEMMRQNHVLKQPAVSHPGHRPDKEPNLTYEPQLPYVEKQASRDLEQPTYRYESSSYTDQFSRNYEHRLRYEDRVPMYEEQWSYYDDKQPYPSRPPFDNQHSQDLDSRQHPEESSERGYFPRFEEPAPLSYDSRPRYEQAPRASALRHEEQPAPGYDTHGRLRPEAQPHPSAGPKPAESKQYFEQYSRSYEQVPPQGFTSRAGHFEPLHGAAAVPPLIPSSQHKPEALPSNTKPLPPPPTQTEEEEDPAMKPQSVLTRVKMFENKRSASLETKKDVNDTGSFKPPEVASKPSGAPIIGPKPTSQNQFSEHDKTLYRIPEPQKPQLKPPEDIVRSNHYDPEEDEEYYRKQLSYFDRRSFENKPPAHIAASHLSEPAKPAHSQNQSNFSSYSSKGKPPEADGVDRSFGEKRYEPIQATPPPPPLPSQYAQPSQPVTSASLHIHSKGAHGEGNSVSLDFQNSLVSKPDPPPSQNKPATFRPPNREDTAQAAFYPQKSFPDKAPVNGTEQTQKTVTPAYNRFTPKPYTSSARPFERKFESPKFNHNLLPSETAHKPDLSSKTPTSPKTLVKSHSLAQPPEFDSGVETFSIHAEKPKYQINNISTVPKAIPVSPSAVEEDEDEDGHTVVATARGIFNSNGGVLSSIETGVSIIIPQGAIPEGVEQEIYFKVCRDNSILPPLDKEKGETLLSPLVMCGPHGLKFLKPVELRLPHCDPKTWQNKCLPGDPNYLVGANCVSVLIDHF
UniProt E2QYC9: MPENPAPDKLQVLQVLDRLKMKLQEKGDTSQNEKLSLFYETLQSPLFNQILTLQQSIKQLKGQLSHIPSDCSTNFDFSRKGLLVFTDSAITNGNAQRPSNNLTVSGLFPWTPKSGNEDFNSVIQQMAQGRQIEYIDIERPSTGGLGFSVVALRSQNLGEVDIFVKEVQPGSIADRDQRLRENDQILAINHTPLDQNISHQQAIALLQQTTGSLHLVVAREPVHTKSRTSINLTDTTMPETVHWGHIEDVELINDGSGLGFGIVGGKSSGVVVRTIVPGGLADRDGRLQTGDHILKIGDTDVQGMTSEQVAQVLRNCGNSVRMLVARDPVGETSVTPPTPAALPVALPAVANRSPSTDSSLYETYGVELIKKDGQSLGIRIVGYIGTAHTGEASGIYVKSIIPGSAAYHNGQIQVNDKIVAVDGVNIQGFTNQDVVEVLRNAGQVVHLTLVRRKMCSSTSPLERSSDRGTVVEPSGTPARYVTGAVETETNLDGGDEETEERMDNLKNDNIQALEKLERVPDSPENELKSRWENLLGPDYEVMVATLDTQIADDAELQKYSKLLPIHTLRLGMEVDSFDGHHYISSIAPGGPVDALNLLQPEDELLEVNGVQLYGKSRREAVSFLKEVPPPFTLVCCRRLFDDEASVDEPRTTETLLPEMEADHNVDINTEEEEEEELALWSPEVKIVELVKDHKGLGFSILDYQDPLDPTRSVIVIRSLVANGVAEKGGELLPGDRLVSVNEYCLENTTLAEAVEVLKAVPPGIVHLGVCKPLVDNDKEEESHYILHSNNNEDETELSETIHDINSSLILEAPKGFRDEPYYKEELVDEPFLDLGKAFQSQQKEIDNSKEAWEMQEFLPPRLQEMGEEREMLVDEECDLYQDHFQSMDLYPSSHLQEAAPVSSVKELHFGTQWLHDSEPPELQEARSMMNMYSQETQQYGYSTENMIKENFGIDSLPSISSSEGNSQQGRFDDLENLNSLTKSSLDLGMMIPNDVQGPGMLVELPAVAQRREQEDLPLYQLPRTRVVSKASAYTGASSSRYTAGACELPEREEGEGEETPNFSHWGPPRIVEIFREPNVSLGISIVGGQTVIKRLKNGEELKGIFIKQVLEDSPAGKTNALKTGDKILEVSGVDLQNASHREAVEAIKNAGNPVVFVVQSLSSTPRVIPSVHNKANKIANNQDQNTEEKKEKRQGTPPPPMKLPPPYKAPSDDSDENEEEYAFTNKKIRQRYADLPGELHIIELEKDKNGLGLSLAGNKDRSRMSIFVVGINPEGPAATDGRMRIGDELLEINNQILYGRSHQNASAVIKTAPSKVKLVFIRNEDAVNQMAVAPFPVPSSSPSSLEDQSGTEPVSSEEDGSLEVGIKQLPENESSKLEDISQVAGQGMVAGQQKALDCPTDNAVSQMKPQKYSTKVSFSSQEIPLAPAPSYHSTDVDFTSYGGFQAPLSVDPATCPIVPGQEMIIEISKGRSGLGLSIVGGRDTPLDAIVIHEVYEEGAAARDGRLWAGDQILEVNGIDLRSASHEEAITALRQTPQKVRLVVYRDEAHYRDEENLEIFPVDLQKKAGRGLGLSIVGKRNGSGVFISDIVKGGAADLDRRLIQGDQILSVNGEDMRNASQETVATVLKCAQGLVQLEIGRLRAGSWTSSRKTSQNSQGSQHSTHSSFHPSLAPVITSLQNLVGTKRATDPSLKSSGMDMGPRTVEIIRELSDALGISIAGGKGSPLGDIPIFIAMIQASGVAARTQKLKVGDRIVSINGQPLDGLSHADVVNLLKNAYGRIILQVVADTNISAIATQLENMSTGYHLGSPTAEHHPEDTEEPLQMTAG

First the molecules themselves.
B1: occludin (protein, UniProt Q28269 1-521)
chain: MSSRPFESPPPYRPDEFKPNHYAPSNDVYGGDMHVRPMLSQPAYSFYPEDEILHFYKWTSPPGVIRILSMLVIVMCIAIFGCVASTLAWDRGYGTGLMGGSIGYPYGSGFGSYGTGYGYGFGYGYGYGGYTDPRAAKGFLLAMVAFCFIAALVIFVTSVIRSDISRTRRYYLTVIILSAFLGVMMFIATIVYIMGVNPTAQASGSLYSSQIYAMCNQFYASTATGLYMDQYLYHYCVVDPQEAIAIVLGFMVIVAFALIIFFAVKTRRKMDRYDKSNILWDKEHIYDEQPPNVEEWVKNVSAGTQDMPPPPSDYVERVDSPMAYSSNGKVNDKRLYPESSYKSTPVPEVVQELPATSPADDFRQPRYSSSGHLEPPSKRAPSKGRTGRPKRLEQDHYETDYTTGGESCDELEEDWIREYPPITSDQQRQLYKRNFDTGLQEYKSLQAELDEINKELSRLDKELDDYREESEEYMAAADEYNRLKQVKGSPDYKNKRNYCKQLKSKLSHIKKMVGDYDRQKT
B2: CGN (protein, UniProt A7YH32 1-1196)
chain: MEQASTMAEPRGPVDHGVQIRFITEPVGNAEMDTLRRGGRRPAKDARANTYGVAVRVQGIAGQPFVVLNSGEQGSDSFGVQIKGTNNRGPPGALSSDSELPESTYSHAKEFPARSQGSMSDEELGAHWNGRLLRSQSQASLKGPAPVSPSTRSTSLLQLAPEVASPGSTIDTAPLSSVDSLINKFDSRQGGQARGRTGRRMRTLPPEQRKRSQSLDNRLPRDTLDEREHQFPTHWTPSTKRDSHMGNSKQSSQNQGPLGGFSCSRQTQDWVLQSFEEPRGRAWDPGMLQFKSTPDLLRDQQETAPPGSVDHVKATIYSILREGSSETETSVRRKVNLVLEQMQPLVMTSGSAKGLTGQSELSQKVEELQQKLDEEVKKRPKLESSRLGLERQLQEKAEECSQLQELLERRKGEAQQSTKELQNMKLLVDQSERVRCGLEAQVKELQDKLKQAQEPEPAKEALMKDLLEARELLEEVLEGKQRMEEHLRLRERELTALKGALKEEVASRDQEVEHVRQQCQRDAEQLRRSIQDATQDHAALEVERQKMSTLVRELQKELEETSEETGHWQSMFQKNKDELRATKQELLQLRMEKEEIEEELGEKIEVLQRELGQARAGAADTRQMEELKKELCQTQKELKELKEEQQNQEVAGRHRERELEKQLKVEADRGQGLEQQNLQLQKTLQQLRQDCEEASKAQVAAEAEVAVLGQRRAAVEVTLRETQEENDEFRRRILGLEQQLKEARGLAEGGEVAEARLRDKVQRLEAEKQRLEEALNAAQEEEGSLAAAKRALEARLEEAQRGLARLGQEQLALNRALEEEGKQREALRRSKAELEEQKRLLDKTVCQLNKELEQIGNDSKQALQQLQAQLEDYKEKARREVADAQRQAKEWATEAEKNSGGLSRLQDETQRLRQALQASQADRDTARLDKELLAQRLQGLEQEAENKKRSQDDRARQLKGLEEKVSRLEAELDEERSTVELLTERVTRGRDQVDQLRSELMQERSARQDLECDKISLERQNKDLKSRLASSEGFQKPSASLSQLESQNQELQERLQAEEREKTVLQSTNRKLERRVKELSIQIDDERQHVNDQKDQLSLRVKALKRQVDEAEEEIERLDGLRKKAQRELEEQHEVNEQLQARIKTLEKDSWRKASRSAAESAQREGLSSDEEFDSVYDPSSIASLLTESNLQTSSC
B3: ZO-2 (protein, UniProt Q95168 1-1174)
chain: MEELIWEQYTVTLQKDSKRGFGIAVSGGRDNPHFENGETSIVISDVLPGGPADGLLQENDRVVMVNGTPMEDVLHSFAVQQLRKSGKIAAIVVKRPRKVQLAPPQGSLPVDEDDRAFEVMDEFDGRSARSGYSERSRRSSHGGRSRSWEDSPERGRPHERAWSQERERSRGRSLERGLDHDDDYRRPRERSRGRSLERGLDHDDDYGRPGERSHGMSTDRGYDRGYDRGYDRGYDRTYSPEAEYGRRTQPDARHAGSRSRSREHLRSRSPSPELRGRPDHAGQPDSDRPIGVLLMKSKANEEYGLRLGSQIFIKQMTRTALATKDGNLHEGDIILKINGTVTENMSLTDARKLIEKSRGKLQLVVLRDSKQTLINIPSLNDSDSEIEDISEIESNRSFSPEERRQQYSDYDYHSSNEKLKERPNSREDMQNRWSRMGATPTPFKSMGDIASVVGTENSKEPRYQEEPPAPQPKAAPRTFLRPSPEDEAIYGPNTKMVRFKKGDSVGLRLAGGNDVGIFVAGIQEGTSAEQEGLQEGDQILKVNTQDFRGLVREDAVLYLLEIPKGEMVTILAQSRADVYRDILACGRGDSFFIRSHFECEKETPQSLAFSRGEVFRVVDTLYDGKLGHWLAVRIGNELEKGLIPNKSRAEQMASVQNAQRDNAGDRADFWRMRGQRSGMKKNLRKSREDLTAAVSVSTKFPAYERVLLREAGFKRPVVLFGPIADIALEKLANELPDLFQTAKTEPKDAGSEKSSGVVRLNTVRQIIEQDKHALLDVTPKAVDLLNYTQWFPIVIFFNPDSRQGVKTMRQRLNPTSNKSSRKLYDQANKLKKTCAHLFTATINLNSANDSWFGSLKDTIQHQQGEAVWVSEGKMEGMDDDPEDRMSYLTAMGADYLSCDSRLISDFEDTDGEGGAYTDNELDEPAEEPLVSSITRSSEPVQHEESIRKPSPEPRAQMRRAASRDQLRDSSPPPAFKPEPPKAKTQNREESFDISRSHDYKSNPSAVAGNEVSGASTRSCPPPIAAKPSFGRSILKPSTPVPSPESEEVGEGSEEQEGAPKSVLGKVKIFEKMDHKARLQRMQELQEAQNARIEIAQKHPDIYAVPIKTHKPDPGLSQHTSSRPPEPQKGPSRLYQDPRGSYGSDAEEEEYRQQLSEHSKRGYYSQPSRYRDTEL
B4: claudin-4 (protein, UniProt A0A8C0N7E5 1-210)
chain: MASMGLQVMGIALAVLGWLGAILSCALPMWRVTAFIGSNIVTSQTIWEGLWMNCVVQSTGQMQCKVYDSLLALPQDLQAARALMVVSIILAALGVLLSVVGGKCTNCVEDESAKAKTMIVAGVVFLLAGLLVMVPASWTANNIIRDFYNPLVVSGQKREMGASLYVGWAASGLLLLGGALLCCNCPPRADKPYSAKYSAAARSAPASNYV

No constants are given. Whether binding was seen depends on the method and setting. In cells and extracts the contact can be indirect. These calls come from enrichment with a bait or labelling near it, and not all partners need be listed.

This assay has as its target Dendra2–ZO-1–APEX2 (UniProt Q07157). Briefly: proximity labelling; Dendra2–ZO-1–APEX2 in MDCK-II monolayers; calcium switch, labelling at 0, 0.5, 1, 3 and 18 h; 1 mM biotin phenol 30 min, 1 mM H2O2 1 min; streptavidin pull-down, TMT mass spectrometry; enrichment against 0 h; proximity < 20 nm.
With “PATJ (endogenous, MDCK-II) (from UniProt E2QYC9 1-1828)”, the binding entry was “binds”.
Turning to B1, the binding result is reported as “binds”.
As for B2, the binding result was “binds”.
Regarding B3, the binding result is given as “binds”.
As to B4, the binding entry is given as “binds”.
